Measured values from paper PMC8298518.
Results are given in words; binding and its absence hold for the method and conditions named. In cells and extracts the contact can be indirect. For part of these data: Binding can be weak; no strength is given. For part of these data: Where a sequence is shown, tags or fusion partners need not be part of it.

Sequences of proteins named here, by UniProt entry; tags and fusion partners are left off. A change or cut given only in a name is not applied to a line headed by its entry.
UniProt Q07820: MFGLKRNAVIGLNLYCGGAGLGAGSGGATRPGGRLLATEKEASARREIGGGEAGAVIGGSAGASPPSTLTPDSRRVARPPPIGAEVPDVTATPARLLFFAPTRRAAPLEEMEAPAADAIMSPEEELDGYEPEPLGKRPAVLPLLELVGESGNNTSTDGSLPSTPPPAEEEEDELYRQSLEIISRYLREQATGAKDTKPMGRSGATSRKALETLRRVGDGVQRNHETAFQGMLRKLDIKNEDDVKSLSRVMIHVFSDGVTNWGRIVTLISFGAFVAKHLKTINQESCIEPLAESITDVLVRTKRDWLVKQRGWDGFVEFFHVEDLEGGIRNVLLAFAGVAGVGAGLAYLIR

T1: HA-GBP1 (UniProt P32455)
T1 sequence: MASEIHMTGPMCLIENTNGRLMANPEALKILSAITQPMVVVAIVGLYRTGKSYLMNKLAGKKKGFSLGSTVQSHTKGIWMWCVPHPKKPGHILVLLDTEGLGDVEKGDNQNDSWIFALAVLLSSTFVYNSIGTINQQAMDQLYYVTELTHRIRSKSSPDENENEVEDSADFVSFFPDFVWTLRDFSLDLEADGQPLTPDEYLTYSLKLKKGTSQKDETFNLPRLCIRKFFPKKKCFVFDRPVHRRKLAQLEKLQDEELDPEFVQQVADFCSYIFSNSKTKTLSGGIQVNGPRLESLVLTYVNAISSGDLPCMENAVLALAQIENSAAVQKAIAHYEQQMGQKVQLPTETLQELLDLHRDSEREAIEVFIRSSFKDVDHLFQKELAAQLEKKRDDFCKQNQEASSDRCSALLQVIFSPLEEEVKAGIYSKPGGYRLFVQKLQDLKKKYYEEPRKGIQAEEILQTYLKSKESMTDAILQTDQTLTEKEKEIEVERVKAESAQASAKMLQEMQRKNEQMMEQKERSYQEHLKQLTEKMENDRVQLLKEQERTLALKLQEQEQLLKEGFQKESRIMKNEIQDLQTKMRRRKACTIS

T2: HA-GBP2 (human) (UniProt P32456)
T2 sequence: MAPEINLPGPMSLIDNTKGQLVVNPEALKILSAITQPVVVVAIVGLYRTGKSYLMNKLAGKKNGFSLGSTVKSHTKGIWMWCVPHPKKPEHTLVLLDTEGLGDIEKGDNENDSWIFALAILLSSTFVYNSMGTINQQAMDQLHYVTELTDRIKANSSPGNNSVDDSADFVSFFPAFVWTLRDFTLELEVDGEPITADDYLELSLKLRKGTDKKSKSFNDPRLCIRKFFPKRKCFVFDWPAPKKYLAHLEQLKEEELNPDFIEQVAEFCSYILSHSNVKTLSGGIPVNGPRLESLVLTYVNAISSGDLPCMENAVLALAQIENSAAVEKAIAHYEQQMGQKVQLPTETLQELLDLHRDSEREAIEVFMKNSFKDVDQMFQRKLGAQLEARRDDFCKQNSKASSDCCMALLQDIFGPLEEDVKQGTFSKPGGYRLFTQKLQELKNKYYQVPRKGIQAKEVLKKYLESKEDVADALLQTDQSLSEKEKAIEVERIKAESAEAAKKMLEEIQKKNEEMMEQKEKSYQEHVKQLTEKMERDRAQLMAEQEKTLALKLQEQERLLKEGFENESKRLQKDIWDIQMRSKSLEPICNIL


Experiments:
[1] = target: T1, HA-GBP1; test: co-IP; immunoprecipitation experiments using mutants of MCL-1 and GBP1 (Supplementary Fig. 2a, b)
[2] = target: T2, HA-GBP2 (human); test: co-IP; 293T cells (2 x 10^6) cotransfected for 24 h; lysates immunoprecipitated with anti-HA
[3] = target: purified recombinant MCL-1 (human) (UniProt Q07820); test: co-IP; in vitro: purified recombinant GBP2 and MCL-1 (0.5 µg), with or without SAHBB (10 µM), immunoprecipitation and immunoblotting; both purified

binding [1] | binding [2] | binding [3] | Molecule
no binding | no binding |  | MCL-1 BH3 mutant (BH3M) (from UniProt Q07820)
 |  | binds | purified recombinant GBP2 (protein, UniProt P32456 1-591) MAPEINLPGPMSLIDNTKGQLVVNPEALKILSAITQPVVVVAIVGLYRTGKSYLMNKLAGKKNGFSLGSTVKSHTKGIWMWCVPHPKKPEHTLVLLDTEGLGDIEKGDNENDSWIFALAILLSSTFVYNSMGTINQQAMDQLHYVTELTDRIKANSSPGNNSVDDSADFVSFFPAFVWTLRDFTLELEVDGEPITADDYLELSLKLRKGTDKKSKSFNDPRLCIRKFFPKRKCFVFDWPAPKKYLAHLEQLKEEELNPDFIEQVAEFCSYILSHSNVKTLSGGIPVNGPRLESLVLTYVNAISSGDLPCMENAVLALAQIENSAAVEKAIAHYEQQMGQKVQLPTETLQELLDLHRDSEREAIEVFMKNSFKDVDQMFQRKLGAQLEARRDDFCKQNSKASSDCCMALLQDIFGPLEEDVKQGTFSKPGGYRLFTQKLQELKNKYYQVPRKGIQAKEVLKKYLESKEDVADALLQTDQSLSEKEKAIEVERIKAESAEAAKKMLEEIQKKNEEMMEQKEKSYQEHVKQLTEKMERDRAQLMAEQEKTLALKLQEQERLLKEGFENESKRLQKDIWDIQMRSKSLEPICNIL
